Source: the supplement of paper PMC8728848
The other results are listed elsewhere or left out.

Key:
Assay in all cases: glycan array binding signal (z-score within array); higher = stronger binding
Conditions in all cases: glycan notation: IUPAC condensed, linker removed
[1] = target: Gal(a1-3)GalNAc
Procedure, shortened: (§1)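 Negative Z-scores can be read as non-binding. The Z-score is calculated within each array and then averaged across arrays of one protein sequence at different concentrations or buffers and across linkers. Arrays, 3228 in all, were curated from the Consortium for Functional Glycomics database and kept only where the protein sequence was available.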

[2] = target: Gal(a1-3)[Gal(a1-4)]Gal(b1-4)GlcNAc
Procedure, shortened: as §1

[3] = target: Gal(a1-4)Gal(b1-3)GlcNAc(b1-2)Man(a1-3)[Gal(a1-4)Gal(b1-3)GlcNAc(b1-2)Man(a1-6)]Man(b1-4)GlcNAc(b1-4)GlcNAc
Procedure, shortened: as §1

[4] = target: Gal(a1-4)Gal(b1-4)Glc
Procedure, shortened: as §1

[5] = target: Gal(a1-4)Gal(b1-4)GlcNAc
Procedure, shortened: as §1

[6] = target: Gal(a1-4)Gal(b1-4)GlcNAc(b1-2)Man(a1-3)[Gal(a1-4)Gal(b1-4)GlcNAc(b1-2)Man(a1-6)]Man(b1-4)GlcNAc(b1-4)GlcNAc
Procedure, shortened: as §1

[7] = target: Gal(a1-4)Gal(b1-4)GlcNAc(b1-3)Gal(b1-4)Glc
Procedure, shortened: as §1

[8] = target: Gal(a1-4)GlcNAc
Procedure, shortened: as §1

[9] = target: Gal(a1-6)Glc
Procedure, shortened: as §1

[10] = target: Gal(b1-2)Gal
Procedure, shortened: as §1

[11] = target: Gal(b1-3)Gal
Procedure, shortened: as §1

[12] = target: Gal(b1-3)Gal(b1-4)GlcNAc
Procedure, shortened: as §1

[13] = target: Gal(b1-3)Gal(b1-4)GlcNAc(b1-2)Man(a1-3)[Gal(b1-3)Gal(b1-4)GlcNAc(b1-2)Man(a1-6)]Man(b1-4)GlcNAc(b1-4)GlcNAc
Procedure, shortened: as §1

[14] = target: Gal(b1-3)GalNAc
Procedure, shortened: as §1

[15] = target: Gal(b1-3)GalNAc(a1-3)[Fuc(a1-2)]Gal(b1-4)Glc
Procedure, shortened: as §1

[16] = target: Gal(b1-3)GalNAc(a1-3)[Fuc(a1-2)]Gal(b1-4)GlcNAc
Procedure, shortened: as §1

[17] = target: Gal(b1-3)GalNAc(b1-3)Gal(a1-4)Gal(b1-4)Glc
Procedure, shortened: as §1

[18] = target: Gal(b1-3)GalNAc(b1-4)Gal(b1-4)Glc
Procedure, shortened: as §1

[19] = target: Gal(b1-3)GalNAc(b1-4)[Neu5Ac(a2-3)]Gal(b1-4)Glc
Procedure, shortened: as §1

[20] = target: Gal(b1-3)GlcNAc
Procedure, shortened: as §1

[21] = target: Gal(b1-3)GlcNAc(a1-6)Gal(b1-4)GlcNAc
Procedure, shortened: as §1

[22] = target: Gal(b1-3)GlcNAc(b1-2)Man(a1-3)[Gal(b1-3)GlcNAc(b1-2)Man(a1-6)]Man(b1-4)GlcNAc(b1-4)GlcNAc
Procedure, shortened: as §1

[23] = target: Gal(b1-3)GlcNAc(b1-2)Man(a1-3)[Gal(b1-3)GlcNAc(b1-2)Man(a1-6)]Man(b1-4)GlcNAc(b1-4)[Fuc(a1-6)]GlcNAc
Procedure, shortened: as §1

[24] = target: Gal(b1-3)GlcNAc(b1-3)Gal(b1-3)GlcNAc
Procedure, shortened: as §1

[25] = target: Gal(b1-3)GlcNAc(b1-3)Gal(b1-4)Glc
Procedure, shortened: as §1

[26] = target: Gal(b1-3)GlcNAc(b1-3)Gal(b1-4)GlcNAc
Procedure, shortened: as §1

[27] = target: Gal(b1-3)GlcNAc(b1-3)Gal(b1-4)GlcNAc(b1-6)[Gal(b1-3)GlcNAc(b1-3)]Gal(b1-4)Glc
Procedure, shortened: as §1

[28] = target: Gal(b1-3)GlcNAc(b1-3)Gal(b1-4)[Fuc(a1-3)]GlcNAc(b1-6)[Gal(b1-3)GlcNAc(b1-3)]Gal(b1-4)Glc
Procedure, shortened: as §1

[29] = target: Gal(b1-3)GlcNAc(b1-3)GalNAc
Procedure, shortened: as §1

[30] = target: Gal(b1-3)GlcNAc(b1-6)Gal(b1-4)GlcNAc
Procedure, shortened: as §1

[31] = target: Gal(b1-3)[Fuc(a1-4)]GlcNAc
Procedure, shortened: as §1

[32] = target: Gal(b1-3)[Fuc(a1-4)]GlcNAc(b1-2)Man(a1-3)[Gal(b1-3)[Fuc(a1-4)]GlcNAc(b1-2)Man(a1-6)]Man(b1-4)GlcNAc(b1-4)GlcNAc
Procedure, shortened: as §1

[33] = target: Gal(b1-3)[Fuc(a1-4)]GlcNAc(b1-2)Man(a1-3)[Gal(b1-3)[Fuc(a1-4)]GlcNAc(b1-2)Man(a1-6)]Man(b1-4)GlcNAc(b1-4)[Fuc(a1-6)]GlcNAc
Procedure, shortened: as §1

[34] = target: Gal(b1-3)[Fuc(a1-4)]GlcNAc(b1-3)Gal(b1-3)[Fuc(a1-4)]GlcNAc
Procedure, shortened: as §1

[35] = target: Gal(b1-3)[Fuc(a1-4)]GlcNAc(b1-3)Gal(b1-4)GlcNAc
Procedure, shortened: as §1

[36] = target: Gal(b1-3)[Fuc(a1-4)]GlcNAc(b1-3)Gal(b1-4)[Fuc(a1-3)]GlcNAc
Procedure, shortened: as §1

[37] = target: Gal(b1-3)[GlcNAc(b1-6)]GalNAc
Procedure, shortened: as §1

B1: SAG1 (Toxoplasma gondii), P13664 (protein)
chain: MSVSLHHFIISSGFLTSMFPKAVRRAVTAGVFAAPTLMSFLRCGVMASDPPLVANQVVTCPDKKSTAAVILTPTENHFTLKCPKTALTEPPTLAYSPNRQICPAGTTSSCTSKAVTLSSLIPEAEDSWWTGDSASLDTAGIKLTVPIEKFPVTTQTFVVGCIKGDDAQSCMVTVTVQARASSVVNNVARCSYGADSTLGPVKLSAEGPTTMTLVCGKDGVKVPQDNNQYCSGTTLTGCNEKSFKDILPKLTENPWQGNASSDKGATLTIKKEAFPAESKSVIIGCTGGSPEKHHCTVKLEFAGAAGSAKSAAGTASHVSIFAMVIGLIGSIAACVA
[1]
  glycan array binding signal (z-score): 0.134
[2]
  glycan array binding signal (z-score): 0.866
[3]
  glycan array binding signal (z-score): -0.287
[4]
  glycan array binding signal (z-score): -0.44
[5]
  glycan array binding signal (z-score): -0.579
[6]
  glycan array binding signal (z-score): 0.75
[7]
  glycan array binding signal (z-score): 0.422
[8]
  glycan array binding signal (z-score): -0.563
[9]
  glycan array binding signal (z-score): -0.501
[10]
  glycan array binding signal (z-score): -0.017
[11]
  glycan array binding signal (z-score): 0.334
[12]
  glycan array binding signal (z-score): -0.036
[13]
  glycan array binding signal (z-score): -0.238
[14]
  glycan array binding signal (z-score): 0.077
[15]
  glycan array binding signal (z-score): 0.13
[16]
  glycan array binding signal (z-score): -1.13
[17]
  glycan array binding signal (z-score): -0.158
[18]
  glycan array binding signal (z-score): 0.028
[19]
  glycan array binding signal (z-score): 0.625
[20]
  glycan array binding signal (z-score): -0.355
[21]
  glycan array binding signal (z-score): -0.323
[22]
  glycan array binding signal (z-score): -0.17
[23]
  glycan array binding signal (z-score): 0.157
[24]
  glycan array binding signal (z-score): -0.522
[25]
  glycan array binding signal (z-score): -0.116
[26]
  glycan array binding signal (z-score): 0.549
[27]
  glycan array binding signal (z-score): 0.175
[28]
  glycan array binding signal (z-score): -0.6
[29]
  glycan array binding signal (z-score): 1.25
[30]
  glycan array binding signal (z-score): 0.082
[31]
  glycan array binding signal (z-score): 0.214
[32]
  glycan array binding signal (z-score): 0.446
[33]
  glycan array binding signal (z-score): 0.212
[34]
  glycan array binding signal (z-score): -0.32
[35]
  glycan array binding signal (z-score): 0.149
[36]
  glycan array binding signal (z-score): -0.276
[37]
  glycan array binding signal (z-score): -0.229
